From article PMC12137164
No constants are given. Whether binding was seen depends on the method and setting. Binding seen in cells or lysates may run through a third protein. A yes stands for co-enrichment or nearness to the bait. Other partners may have been found.

Protein sequences, listed by entry. Tags and fused reporters are not part of them.
UniProt Q9UKL0: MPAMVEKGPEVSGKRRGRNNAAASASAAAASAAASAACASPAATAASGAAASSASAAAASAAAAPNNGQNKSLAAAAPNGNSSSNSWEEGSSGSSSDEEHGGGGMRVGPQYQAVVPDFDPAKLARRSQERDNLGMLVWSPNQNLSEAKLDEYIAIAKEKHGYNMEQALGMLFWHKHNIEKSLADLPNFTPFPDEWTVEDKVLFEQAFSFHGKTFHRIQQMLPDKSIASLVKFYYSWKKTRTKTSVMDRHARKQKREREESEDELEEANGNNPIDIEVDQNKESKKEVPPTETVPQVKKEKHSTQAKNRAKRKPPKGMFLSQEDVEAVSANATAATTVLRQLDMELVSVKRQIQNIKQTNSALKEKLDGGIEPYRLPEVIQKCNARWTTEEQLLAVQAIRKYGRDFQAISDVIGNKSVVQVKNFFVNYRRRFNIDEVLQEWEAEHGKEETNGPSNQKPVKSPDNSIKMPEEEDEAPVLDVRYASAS

Biological target: T1, hexokinase domain-containing protein 1 (HKDC1) (human (endogenous in SW620 and DLD1)) (UniProt Q2TB90)
T1 sequence: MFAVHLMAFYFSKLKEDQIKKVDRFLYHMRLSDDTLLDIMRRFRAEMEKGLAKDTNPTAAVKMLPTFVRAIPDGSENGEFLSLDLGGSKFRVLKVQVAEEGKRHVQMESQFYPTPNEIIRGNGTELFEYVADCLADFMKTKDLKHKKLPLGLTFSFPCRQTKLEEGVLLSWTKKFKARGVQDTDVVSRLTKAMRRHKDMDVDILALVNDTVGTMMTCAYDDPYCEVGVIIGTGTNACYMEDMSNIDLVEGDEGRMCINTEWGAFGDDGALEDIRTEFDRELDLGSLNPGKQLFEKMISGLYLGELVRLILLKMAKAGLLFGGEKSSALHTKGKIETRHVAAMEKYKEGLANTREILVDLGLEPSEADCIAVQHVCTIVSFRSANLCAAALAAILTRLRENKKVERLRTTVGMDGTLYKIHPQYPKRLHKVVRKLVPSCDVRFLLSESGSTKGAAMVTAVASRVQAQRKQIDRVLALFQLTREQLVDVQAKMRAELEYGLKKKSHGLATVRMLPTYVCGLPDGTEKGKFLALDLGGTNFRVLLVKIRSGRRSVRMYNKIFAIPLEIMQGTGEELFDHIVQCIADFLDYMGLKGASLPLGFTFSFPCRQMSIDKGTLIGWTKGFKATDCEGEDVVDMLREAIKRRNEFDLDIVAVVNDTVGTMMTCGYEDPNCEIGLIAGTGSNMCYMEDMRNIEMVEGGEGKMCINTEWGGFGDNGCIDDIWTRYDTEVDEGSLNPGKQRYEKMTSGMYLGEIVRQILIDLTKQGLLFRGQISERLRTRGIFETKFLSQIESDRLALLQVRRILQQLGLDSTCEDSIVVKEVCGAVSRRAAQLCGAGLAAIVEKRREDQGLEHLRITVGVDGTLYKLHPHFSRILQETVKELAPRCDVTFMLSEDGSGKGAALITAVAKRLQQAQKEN
Assay: affinity purification with mass spectrometry; Co-IP followed by mass spectrometry to find partners of HKDC1; cell line and precipitating antibody not stated for this experiment

REST Corepressor 1 (RCOR1) (from UniProt Q9UKL0 1-485)
binding: binds
